Changes are numbered by the printed parent chain. No constants are given. Whether binding was seen depends on the method and setting. A result given as binding can be weak or reduced; the word gives no strength.
B1: NB0937 (antibody, V domains shown)
VH: EVQLVESGGGLVQPGGSLRLSCAASGFSFSTDYWMSWVRQAPGKGLEWVSSIYVGTSGDTYYADSVKGRFTISRDNSKNTLYLQMDSLRAEDTAIYYCAGADNPYDYFNLWGQGTLVTVS
VL: DIQMTQSPSSVSASVGDRVTITCRASETISGYLAWYQQKPGKAPKLLIYRASSLESGVPSRFSGSGSGTEFTLTISSLQPDDFATYYCQQGYSYSDTDNVFGGGTKVEIK
notes: Humanized variant of B7 by CDR grafting; also called Clone 937
B2: NB0919 (antibody, V domains shown)
VH: QVQLQESGPGLVKPSDTLSLTCTVSGFSFSTDYWWSWIRQPPGKGLEWIGYIYVGTSGDTYYNPSLKSRVTISVDTSKNQFSLKLSSVTAADTAVYYCAGADNPYDYFNLWGQGTLVTVSS
VL: B1 VL with V11L, A34N, E55Q, E70D, D81E
notes: Humanized variant of B7 by CDR grafting; also called Clone 919
B3: NB0920 (antibody, V domains shown)
VH: B2 VH
VL: B1 VL with V11L, A43V, S53T, E55Q, E70D, D81E, F83V
notes: Humanized variant of B7 by CDR grafting; also called Clone 920
B4: NB0938 (antibody, V domains shown)
VH: B1 VH
VL: B1 VL with V11L, A34N, E55Q, E70D, D81E
notes: Humanized variant of B7 by CDR grafting; also called Clone 938

Amino acid sequences for entries named in this document (tags omitted). A change or cut given only in a name is not applied to a line headed by its entry.
UniProt P15018: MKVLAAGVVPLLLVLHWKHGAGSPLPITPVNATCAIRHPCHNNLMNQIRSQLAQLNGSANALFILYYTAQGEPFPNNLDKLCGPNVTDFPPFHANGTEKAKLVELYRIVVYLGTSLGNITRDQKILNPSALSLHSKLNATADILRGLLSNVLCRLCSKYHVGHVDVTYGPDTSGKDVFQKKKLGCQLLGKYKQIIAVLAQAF

molecular target: recombinant human LIF (Leukemia Inhibitory Factor) (human) (UniProt P15018); assay: single point binding ELISA to HuLIF at 750 nM

| binding | Binder |
| --- | --- |
| binds | B1 |
| binds | B2 |
| binds | B3 |
| binds | B4 |

molecular target: recombinant human LIF (Leukemia Inhibitory Factor) (human) (UniProt P15018); assay: ELISA (FIG. 2)

| binding | Binder |
| --- | --- |
| binds | B1 |
| binds | B2 |
| binds | B3 |
| binds | B4 |

molecular target: recombinant human LIF (Leukemia Inhibitory Factor) (human) (UniProt P15018); assay: blocking ELISA: antibody premixed with biotinylated recombinant human LIF, added to plate-coated human LIFR; blocked partner LIFR

| binding | Binder |
| --- | --- |
| binds | B1 |
| binds | B2 |
| binds | B3 |
| binds | B4 |

molecular target: recombinant human LIF (Leukemia Inhibitory Factor) (human) (UniProt P15018); assay: ELISA on plate-coated recombinant human LIF, anti-human Fc HRP detection

| binding | Binder |
| --- | --- |
| binds | B1 |
| binds | B2 |
| binds | B3 |
| binds | B4 |

Reference: patent publication US20230050773A1 (AstraZeneca / MedImmune, published 2023)
